Data on two molecules can be found in PMC8466300, “Investigating the Central Nervous System Disposition of Actinomycin D: Implementation and Evaluation of Cerebral Microdialysis and Brain Tissue Measurements Supported by UPLC-MS/MS Quantification” (Pharmaceutics, 2021).

*1 amine or outer side, *2 acyl side, *3 side chain or, on linkers, in order; H or OH if unused. Where a SMILES comes first, the peptide text is derived from it. Bridges are numbered along the chain shown (N, C = ends). Roman numbers before positions name the chains, in order. [ ]: non-standard residue; d: D form. Actinocin(9to1) = Cc1c2oc3c(C)ccc(C(=O)[*:1])c3nc-2c(C(=O)[*:2])c(N)c1=O; NMeV = CN[C@H](C(=O)O)C(C)C; Sar = CNCC(=O)O

A short description of this data set: In vitro retrodialysis recovery of microdialysis probes.

For the molecule `Cc1c2oc3c(C)ccc(C(=O)N[C@@H]4C(=O)N[C@H](C(C)C)C(=O)N5CCC[C@H]5C(=O)N(C)CC(=O)N(C)[C@@H](C(C)C)C(=O)O[C@@H]4C)c3nc-2c(C(=O)N[C@@H]2C(=O)N[C@H](C(C)C)C(=O)N3CCC[C@H]3C(=O)N(C)CC(=O)N(C)[C@@H](C(C)C)C(=O)O[C@@H]2C)c(N)c1=O` [actinomycin D, Actinomycin D] (I: T[dV]P[Sar][NMeV] / II: T[dV]P[Sar][NMeV]; ester I:1-I:C, II:1-II:C; linker I:N-II:N via Actinocin(9to1)), the “in vitro retrodialysis recovery rate” value was 87.0% (100 ng/mL stock in 1% BSA Ringer, Probe 1); 77.1% (100 ng/mL stock in 1% BSA Ringer, Probe 2); 89.5% (100 ng/mL stock in 1% BSA Ringer, Probe 3); 84.5% (100 ng/mL stock in 1% BSA Ringer, Probe 4). Moreover, where the note is “CMA7 1 mm PES probe, 55 kDa, 0.5 µL/min, 100 ng/mL stock in 1% BSA Ringer, mean of 4 probes”, the “in vitro retrodialysis recovery coefficient (recovery rate)” value is 84.5 ± 5.4%. Further, the “RD recovery rate, probe comparison” value (probe CAM7 (Cat.No. 8012411), polyethersulfone, MWCO 55kDa, n = 2) is on record as 81.6 ± 9.9%; the “RD recovery rate, probe comparison” value (probe CMA8 (Cat.No. 8012201), polyacrylethersulfone, MWCO 20kDa, n = 1) is listed as 88.83%; the “RD recovery rate, probe comparison” value (probe MD-2211, cellulose, MWCO 35kDa, n = 5) was 79.4 ± 2.8%.

With Actinomycin C, where the note is “actinomycin C used for probe calibration, 1 % BSA, mean of 2 probes”, the “in vitro retrodialysis coefficient (recovery rate)” value is 87.6 ± 0.5%. Besides, the “in vitro retrodialysis recovery rate” value reads like this: (actinomycin C, 1 % BSA, Probe 1) 87.9%; (actinomycin C, 1 % BSA, Probe 2) 87.2%.
